In PubChem BioAssay AID504444 (National Center for Advancing Translational Sciences (NCATS), 2011):
Hit rate of the full screen: of about 360,000 compounds, about 7,500 (2.1%) were called active. Inconclusive means that the source gave no clear call. Such entries were picked first, then a sample of the others. Calls come from the whole dose curve; as a rule, active = well fitted inhibition curve with a large enough effect; inconclusive = small, poorly fitted or top-dose-only effect, or effect the other way; inactive = flat fitted curve, though single readings scatter. Potencies of inconclusive entries are doubtful fits and often do not repeat.

Test: Nrf2 qHTS screen for inhibitors; note: nearly all actives have a fitted effect of over 60% in size
Conditions: A549 ARE-Fluc reporter, luciferase luminescence, 18-24 h; activity change, negative = inhibition: at 46 µM (top of the series)
How it was run: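 A549 ARE_Fluc cells (5000/well, 5% FBS OPTI-MEM) pre-incubated 2 h, then treated with compounds 18-24 h at 37C/5% CO2 in concentration-response. CellTiter-Fluor viability read first; BugLite luciferase luminescence after 15 min at room temperature gives Nrf2 activity.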
% is set by controls: 0 for no effect and ±100 for the full control effect; potency is the fitted concentration of half-maximal effect.

Row | Structure (SMILES) | Potency | activity change, negative = inhibition
1 | CCc1cc(=O)oc2cc(OCC(=O)N(CC)CC)c(Cl)cc12 | inconclusive: 2.91 µM [falling, partial curve, poor fit] | –
2 | O=C(CSc1ccc(Cl)cc1)Nc1cccc(NC(=O)c2ccco2)c1 | inconclusive: 18.4 µM [falling, partial curve, poor fit] | –
3 | CCOC(=O)c1cc(C(=O)OCC)c2cccc(C)n2c1=O | inconclusive: 20.6 µM [falling, single point] | –
4 | CC(=O)N1CCc2c(sc3c2c(=O)n(Cc2ccccc2)c(=O)n3CC(=O)Nc2ccc(C)c(F)c2)C1 | inconclusive: 6.51 µM [falling, full curve, poor fit] | –
5 | COc1ccccc1CNC(=O)c1ccc(CS(=O)(=O)c2ccccc2)o1 | – | inactive: 0.412%
6 | COc1ccc(CN2C(=O)C(NC(=O)c3ccccc3OC)(C(F)(F)F)N=C2c2ccccc2)cc1 (stereo not given) | inconclusive: 1.16 µM [falling, partial curve, poor fit] | –
7 | CCOc1ccc(S(=O)(=O)N2CCCCC2)cc1NC(=O)Cc1cccs1 | inconclusive: 25.9 µM [falling, partial curve, poor fit] | –
8 | CCc1ccc(S(=O)(=O)c2nnn(-c3cccc(C)c3)c2N)cc1 | inconclusive: 16.4 µM [falling, partial curve, poor fit] | –
9 | CCc1nnc(NC(=O)CSc2nnc(C3CCCCC3)n2-c2cccc(Cl)c2)s1 | inconclusive: 29.1 µM [falling, single point] | –
10 | CCOC(=O)c1c(-c2ccccc2)oc2ccc(NS(=O)(=O)c3ccc(C(C)C)cc3)cc12 | inconclusive: 25.9 µM [falling, single point] | –
11 | COc1ccc(CCNC(=O)Nc2cccc([N+](=O)[O-])c2)cc1OC | – | inactive: -31.3%
12 | COc1ccc(C)cc1NC(=O)CSc1ccc(Cl)cc1 | inconclusive: 5.17 µM [activator, full curve, poor fit] | –
13 | CCCCCn1c(=N)n(CC(O)COc2ccccc2OC)c2ccccc21 (stereo not given) | inactive | –
14 | CC(C)(C)c1ccc(C(=O)Nc2ncn[nH]2)cc1 | inconclusive: 13 µM [activator, partial curve] | –
15 | CCOC(=O)c1oc2ccccc2c1NC(=O)c1ccc(Cl)s1 | inconclusive: 10.3 µM [falling, partial curve] | –
16 | O=C(CSc1ccc(-c2cccnc2)nn1)Nc1ccc(Br)cc1 | active: 7.31 µM | –
17 | COc1ccccc1NC(=O)c1c(C)cc(C)nc1SCC(=O)Nc1cccc(C)c1 | inconclusive: 20.6 µM [falling, partial curve] | –
18 | COc1ccc(OC)c(/C=C/C(=O)N2CCN(S(=O)(=O)c3cc(C)ccc3C)CC2)c1 | – | inactive: -16.4%
19 | CCOC(=O)N1CCN(C(=O)c2ccc(S(=O)(=O)c3ccc(C)cc3)c(NC(C)=O)c2)CC1 | inconclusive: 6.51 µM [activator, single point] | –
20 | Cc1nc2c(F)c(F)c(C(F)(F)F)c(F)c2[nH]1 | inconclusive: 23.1 µM [falling, single point] | –
21 | Cc1ccc(-n2nc(C)c3c(C)cc(=O)n(CC(=O)NC(C)C)c32)cc1 | inconclusive: 29.1 µM [activator, single point] | –
22 | CSc1cccc(NC(=S)NN(C)C)c1 | inconclusive: 25.9 µM [activator, single point] | –

Row | Structure (SMILES) | Potency | activity change, negative = inhibition
23 | Clc1ccc2c(NCc3ccco3)ncnc2c1 | inconclusive: 23.1 µM [falling, partial curve, poor fit] | –
24 | CCc1cccc(CC)c1N(COC)C(=O)Cn1c(C)nc2ccccc21 | inconclusive: 32.6 µM [falling, single point] | –
25 | CCN(CC)CCOC(=O)c1ccc(NC(=O)CSc2cc(=O)n(CC)c3ccccc23)cc1 | inconclusive: 6.51 µM [activator, single point] | –
26 | CN(Cc1cccnc1)C(=O)c1cc(COc2ccc3c(c2)CCCC3)on1 | inconclusive: 25.9 µM [falling, single point] | –
27 | CCOC(=O)C1(Cc2ccccc2C)CCCN(C(=O)c2ccoc2)C1 (stereo not given) | inconclusive: 13 µM [activator, partial curve] | –
28 | O=C(Nc1nccs1)C1CCN(S(=O)(=O)c2c(Cl)cccc2Cl)CC1 | active: 16.4 µM | –
29 | CC(=O)Nc1ccc(S(=O)(=O)N(C)CC(=O)OCC(=O)NNC(=O)c2ccccc2F)cc1 | – | inactive: 2.44%
30 | C#CCSc1nc(-c2ccccc2)cc(C(F)(F)F)c1C#N | – | inactive: -15.7%
31 | CCCc1c(C(=O)NNc2cc(C(F)(F)F)ccc2Cl)cnn1-c1ccccc1 | inconclusive: 16.4 µM [falling, partial curve] | –
32 | C/C(=N\NC(=O)CCc1ccc(S(=O)(=O)N2CCOCC2)cc1)c1ccc(Br)cc1 | inconclusive: 0.731 µM [falling, full curve, poor fit] | –
33 | Cc1nc(NCC(c2ccccc2)N(C)C)c2c(C)c(C)sc2n1 (stereo not given) | inconclusive: 29.1 µM [falling, single point] | –
34 | CCc1nn2cc(C(=O)c3cc(Cl)ccc3O)cnc2c1-c1ccc(F)cc1 | inconclusive: 29.1 µM [falling, single point] | –
35 | Cc1ccc(Cn2nc(C)c(/C=N/NC(=O)c3cccnc3)c2C)cc1 | inconclusive: 6.51 µM [activator, single point] | –
36 | COCCN(C(=O)CCC(=O)Nc1cc(C)on1)C(C(=O)NC1CCCC1)c1ccc(C(C)C)cc1 (stereo not given) | inconclusive: 23.1 µM [falling, single point] | –
37 | Cn1c(C(=O)N2CCN(c3ccccc3)CC2)cc2cc(Cl)ccc21 | – | inactive: 5.29%
38 | CC(NC(=O)/C(C#N)=C1\N=C(NC(=O)c2ccco2)c2ccccc21)c1ccccc1 (stereo not given) | inconclusive: 7.31 µM [activator, partial curve] | –
39 | Cc1ccc(-c2ccc(=O)n(CC(=O)Nc3ccc(C(C)C)cc3)n2)cc1 | – | inactive: 0.38%
40 | CC(C)c1ccc(NC(=O)c2cccc(Br)c2)cc1 | inconclusive: 2.06 µM [activator, full curve] | –
41 | Cc1cc(C)n(-c2nnc(N3CCN(c4ccccc4)CC3)nn2)n1 | inconclusive: 18.4 µM [activator, single point] | –
42 | Cc1cc(C(C)(C)C)nc2[nH]n(-c3ccccc3)c(=O)c12 | – | inactive: -10.5%
43 | CC1(C)CC(=O)c2c(-c3cccs3)n[nH]c2C1 | – | inactive: -15.9%
44 | COC(=O)c1ccc(C2C(C#N)=C(N)Oc3cc(O)ccc32)cc1 (stereo not given) | – | inactive: -22.5%

Row | Structure (SMILES) | Potency | activity change, negative = inhibition
45 | Cc1ccc(S(=O)(=O)Cn2nnnc2C(c2ccc(F)cc2)N2CCCCC2)cc1 (stereo not given) | inconclusive: 23.1 µM [falling, single point] | –
46 | Cc1cc(C)cc(C(N)=Nc2cccc(C#N)c2)c1 | inconclusive: 6.51 µM [activator, single point] | –
47 | CCCN(CCC)C1CC(=O)N(Cc2ccccc2)C1=O (stereo not given) | – | inactive: 25.4%
48 | COc1ccc(-c2cn3nc(N4CCC(C(=O)NCc5ccc(F)cc5)CC4)sc3n2)cc1 | inconclusive: 0.82 µM [activator, full curve, poor fit] | –
49 | COc1cc(C(=O)N(Cc2cccnc2)Cc2cc3cc4c(cc3[nH]c2=O)OCCO4)cc(OC)c1OC | – | inactive: 8.81%
50 | CCOC(=O)N1CCN(C(=O)c2ccc3c(=O)n(Cc4ccc(OC)cc4)c(=S)[nH]c3c2)CC1 | inconclusive: 20.6 µM [falling, single point] | –
51 | O=C1c2ccccc2-c2onc3c(N4CCN(CCO)CC4)cc(N4CCN(C(=O)c5ccco5)CC4)c1c23 | inconclusive: 18.4 µM [falling, partial curve, poor fit] | –
52 | C[C@H]1CN([C@@H](C)CO)C(=O)c2cc(NC(=O)Cc3ccccc3)ccc2O[C@H]1CN(C)Cc1ccccc1 | – | inactive: -2.52%
53 | C/C(N)=C(/C#N)C(=O)COC(=O)C1CCC(C(C)(C)C)CC1 (stereo not given) | inconclusive: 12.6 µM [falling, partial curve, poor fit] | –
54 | CCC(C(=O)Nc1cc(Cl)c(OC)cc1OC)c1ccccc1 (stereo not given) | inconclusive: 20.6 µM [falling, partial curve, poor fit] | –
55 | Cc1cc(NC(=O)CCC2CCCCC2)no1 | inconclusive: 29.1 µM [activator, single point] | –
56 | O=S(=O)(NCc1ccccc1)c1ccc(Cl)c(S(=O)(=O)NCc2ccccc2)c1 | inconclusive: 16.4 µM [falling, partial curve, poor fit] | –
57 | CCCNC(=S)N1CCC(C(=O)c2ccc(OC)cc2)CC1 | inconclusive: 20.6 µM [falling, single point] | –
58 | COc1ccccc1C(=O)NCCCn1cc(Br)c(C)n1 | inconclusive: 29.1 µM [falling, single point] | –
59 | COc1ccc(-n2c(Cc3cc(=O)[nH]c(=O)[nH]3)nnc2SCC(=O)N2CCC(C)CC2)cc1 | inconclusive: 6.51 µM [falling, single point] | –
60 | CC(=O)CC(C)(C)Nc1nc2ccc([N+](=O)[O-])cc2o1 | inconclusive: 5.8 µM [activator, partial curve] | –
61 | CN(C)c1ccc(C(CNC(=O)c2cccs2)N(C)C)cc1 (stereo not given) | inconclusive: 18.4 µM [activator, single point] | –
62 | COc1ccc(Nc2ncnc3onc(-c4ccc(Cl)cc4)c23)cc1Cl | – | inactive: -6.94%
63 | O=C(CCc1nc2ccccc2c(=O)[nH]1)OCC(=O)c1ccc(C2CCCCC2)cc1 | inconclusive: 2.91 µM [activator, full curve, poor fit] | –
64 | O=C(Nc1nc(-c2ccccc2)cs1)C1CCCN(S(=O)(=O)c2cccc([N+](=O)[O-])c2)C1 (stereo not given) | inconclusive: 6.51 µM [falling, partial curve] | –
65 | N/C(=N\OC(=O)c1ccc(=O)n(Cc2ccccc2)c1)c1ccccn1 | inconclusive: 6.51 µM [activator, full curve] | –

Single entries from above.
`CCCN(CCC)C1CC(=O)N(Cc2ccccc2)C1=O` (stereo not given) – activity change, negative = inhibition: inactive: 25.4%
`C[C@H]1CN([C@@H](C)CO)C(=O)c2cc(NC(=O)Cc3ccccc3)ccc2O[C@H]1CN(C)Cc1ccccc1` – activity change, negative = inhibition: inactive: -2.52%
